Measurements published in article PMC12789522.
No constants are given. Whether binding was seen depends on the method and setting. Some results given as binding are weak or reduced against the parent protein; the word gives no strength.

Target: T1, Sas3 (residues 105-831), catalytic subunit of the NuA3 complex (S. cerevisiae) (UniProt P34218)
T1 sequence: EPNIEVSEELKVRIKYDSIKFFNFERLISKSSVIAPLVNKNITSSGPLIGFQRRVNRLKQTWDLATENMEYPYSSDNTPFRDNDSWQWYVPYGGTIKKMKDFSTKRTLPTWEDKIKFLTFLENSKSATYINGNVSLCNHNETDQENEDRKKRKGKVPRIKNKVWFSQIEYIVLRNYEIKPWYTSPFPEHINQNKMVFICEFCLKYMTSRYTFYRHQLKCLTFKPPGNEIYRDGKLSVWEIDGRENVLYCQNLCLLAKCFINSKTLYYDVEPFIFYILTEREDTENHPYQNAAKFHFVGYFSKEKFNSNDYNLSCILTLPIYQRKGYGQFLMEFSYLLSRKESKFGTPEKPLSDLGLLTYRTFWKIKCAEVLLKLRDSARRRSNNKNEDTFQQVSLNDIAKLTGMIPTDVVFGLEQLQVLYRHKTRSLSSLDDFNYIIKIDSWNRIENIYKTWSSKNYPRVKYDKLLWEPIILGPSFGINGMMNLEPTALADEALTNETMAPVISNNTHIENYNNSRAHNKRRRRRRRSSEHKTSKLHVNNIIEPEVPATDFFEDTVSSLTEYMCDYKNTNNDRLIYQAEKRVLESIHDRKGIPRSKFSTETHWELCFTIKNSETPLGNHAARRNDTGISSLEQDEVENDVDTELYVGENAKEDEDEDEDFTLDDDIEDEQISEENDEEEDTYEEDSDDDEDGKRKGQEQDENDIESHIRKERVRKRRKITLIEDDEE
Assay: co-purification (anti-FLAG affinity, then size-exclusion chromatography); six subunits co-expressed in High Five cells; lysate on anti-FLAG G1 resin (Sas3-FLAG), eluted with FLAG peptide, Superose 6 Increase; SDS-PAGE of the purified complex

B1: Pdp3, subunit of the NuA3 complex (protein, UniProt Q06188 1-304)
chain: MTKDIRTGDLVLCKVGSFPPWPAVVFPQRLLRNDVYRKRKSNCVAVCFFNDPTYYWEQPSRLKELDQDSIHNFILEHSKNANQRELVNAYKEAKNFDDFNVFLQEKFEEENRLSDLKAFEKSEGSKIVAGEDPFVGRTKVVNKRKKNSISIKEDPEDNQKSNEEESKPNIKPSKKKRPTANSGGKSNSGNKKKVKLDYSRRVEISQLFRRRIQRNLIQRETPPTEHEIKETHELLNRIYENSDTKRPFFDLKALRESKLHKLLKAIVNDPDLGEFHPLCKEILLSWADLITELKKEKLQALPTP
Question: For B1, which binding is on record?
Answer: Its binding is “binds”.
